# Source: the supplement of paper PMC11438910
# This is one part of the list. Only a few entries rise above the background.
# Experiments:
# Assay in all cases: fluorescence intensity of antibody binding to polysaccharide-coupled beads; higher = stronger binding
# [1] = molecular target: pneumococcal polysaccharide Pn6A
# [2] = molecular target: pneumococcal polysaccharide Pn6B
# [3] = molecular target: pneumococcal polysaccharide Pn6C
# [4] = molecular target: pneumococcal polysaccharide Pn6D
# [5] = molecular target: pneumococcal polysaccharide Pn7A
# [6] = molecular target: pneumococcal polysaccharide Pn7B
# [7] = molecular target: pneumococcal polysaccharide Pn7C
# [8] = molecular target: pneumococcal polysaccharide Pn7F
# [9] = molecular target: pneumococcal polysaccharide Pn8
# [10] = molecular target: pneumococcal polysaccharide Pn9A
# [11] = molecular target: pneumococcal polysaccharide Pn9L
# [12] = molecular target: pneumococcal polysaccharide Pn9N
# [13] = antibody concentration 81.7561 ng/mL
# [14] = antibody concentration 437.17 ng/mL
# [15] = antibody concentration 2337.65 ng/mL
# [16] = antibody concentration 12500 ng/mL
# [17] = antibody concentration 0.1 ng/mL
# [18] = antibody concentration 0.534724 ng/mL
# [19] = antibody concentration 2.8593 ng/mL
# [20] = antibody concentration 15.2894 ng/mL
binder,measurement,setting,value
4-127.1 (protein) chain 1: QVQLQESGPGLVKPSETLSLTCAVSDYSINTGHGWTWIRQPPGKGLEWIGYIGGSSGSPNYNPSLKSRVTISKDTSKNELSLKLNSVTAADTAVYYCARRIPADRSGNDFWGQGVLVTVSS chain 2: QSVLTQPPSVSGDPGQRVTISCTGSSSNIGGFYGYWYQQFPGTAPKLLIYDNNKRPSGISDRFSGSKSGTSASLTITGLQPGDEADYYCGSWDSSLSAHVFGSGTKLTVL,fluorescence intensity,[1]; [13],20.5 MFI
same,fluorescence intensity,[1]; [14],22 MFI
same,fluorescence intensity,[1]; [15],28.8 MFI
same,fluorescence intensity,[1]; [16],35.5 MFI
same,fluorescence intensity,[2]; [17],17.2 MFI
same,fluorescence intensity,[2]; [18],19.5 MFI
same,fluorescence intensity,[2]; [19],18.5 MFI
same,fluorescence intensity,[2]; [20],19.8 MFI
same,fluorescence intensity,[2]; [13],19.5 MFI
same,fluorescence intensity,[2]; [14],20 MFI
same,fluorescence intensity,[2]; [15],25.5 MFI
same,fluorescence intensity,[2]; [16],35.2 MFI
same,fluorescence intensity,[3]; [17],20.5 MFI
same,fluorescence intensity,[3]; [18],17 MFI
same,fluorescence intensity,[3]; [19],22.5 MFI
same,fluorescence intensity,[3]; [20],27 MFI
same,fluorescence intensity,[3]; [13],51.5 MFI
same,fluorescence intensity,[3]; [14],52.2 MFI
same,fluorescence intensity,[3]; [15],55.8 MFI
same,fluorescence intensity,[3]; [16],65 MFI
same,fluorescence intensity,[4]; [17],15.8 MFI
same,fluorescence intensity,[4]; [18],18.5 MFI
same,fluorescence intensity,[4]; [19],16.5 MFI
same,fluorescence intensity,[4]; [20],17.5 MFI
same,fluorescence intensity,[4]; [13],16.5 MFI
same,fluorescence intensity,[4]; [14],16 MFI
same,fluorescence intensity,[4]; [15],18.8 MFI
same,fluorescence intensity,[4]; [16],21 MFI
same,fluorescence intensity,[5]; [17],20.2 MFI
same,fluorescence intensity,[5]; [18],21 MFI
same,fluorescence intensity,[5]; [19],19.5 MFI
same,fluorescence intensity,[5]; [20],20.2 MFI
same,fluorescence intensity,[5]; [13],19.5 MFI
same,fluorescence intensity,[5]; [14],20 MFI
same,fluorescence intensity,[5]; [15],27 MFI
same,fluorescence intensity,[5]; [16],82 MFI
same,fluorescence intensity,[6]; [17],16.5 MFI
same,fluorescence intensity,[6]; [18],15.5 MFI
same,fluorescence intensity,[6]; [19],15.5 MFI
same,fluorescence intensity,[6]; [20],16.5 MFI
same,fluorescence intensity,[6]; [13],17.8 MFI
same,fluorescence intensity,[6]; [14],15.5 MFI
same,fluorescence intensity,[6]; [15],17.8 MFI
same,fluorescence intensity,[6]; [16],28.5 MFI
same,fluorescence intensity,[7]; [17],16.8 MFI
same,fluorescence intensity,[7]; [18],16 MFI
same,fluorescence intensity,[7]; [19],14.2 MFI
same,fluorescence intensity,[7]; [20],16.5 MFI
same,fluorescence intensity,[7]; [13],14.5 MFI
same,fluorescence intensity,[7]; [14],16.5 MFI
same,fluorescence intensity,[7]; [15],17.5 MFI
same,fluorescence intensity,[7]; [16],27.5 MFI
same,fluorescence intensity,[8]; [17],13.5 MFI
same,fluorescence intensity,[8]; [18],15 MFI
same,fluorescence intensity,[8]; [19],15 MFI
same,fluorescence intensity,[8]; [20],14.8 MFI
same,fluorescence intensity,[8]; [13],14.5 MFI
same,fluorescence intensity,[8]; [14],16.5 MFI
same,fluorescence intensity,[8]; [15],24 MFI
same,fluorescence intensity,[8]; [16],82.5 MFI
same,fluorescence intensity,[9]; [17],20 MFI
same,fluorescence intensity,[9]; [18],21.8 MFI
same,fluorescence intensity,[9]; [19],22.5 MFI
same,fluorescence intensity,[9]; [20],22 MFI
same,fluorescence intensity,[9]; [13],21.5 MFI
same,fluorescence intensity,[9]; [14],23.5 MFI
same,fluorescence intensity,[9]; [15],29.5 MFI
same,fluorescence intensity,[9]; [16],43 MFI
same,fluorescence intensity,[10]; [17],20.5 MFI
same,fluorescence intensity,[10]; [18],19.5 MFI
same,fluorescence intensity,[10]; [19],16.5 MFI
same,fluorescence intensity,[10]; [20],18.5 MFI
same,fluorescence intensity,[10]; [13],20 MFI
same,fluorescence intensity,[10]; [14],20 MFI
same,fluorescence intensity,[10]; [15],21.8 MFI
same,fluorescence intensity,[10]; [16],33 MFI
same,fluorescence intensity,[11]; [17],18.8 MFI
same,fluorescence intensity,[11]; [18],17.8 MFI
same,fluorescence intensity,[11]; [19],18 MFI
same,fluorescence intensity,[11]; [20],18 MFI
same,fluorescence intensity,[11]; [13],17 MFI
same,fluorescence intensity,[11]; [14],17.5 MFI
same,fluorescence intensity,[11]; [15],19 MFI
same,fluorescence intensity,[11]; [16],25.5 MFI
same,fluorescence intensity,[12]; [17],16.5 MFI
same,fluorescence intensity,[12]; [18],16 MFI
same,fluorescence intensity,[12]; [19],16 MFI
same,fluorescence intensity,[12]; [20],16 MFI
same,fluorescence intensity,[12]; [13],16.5 MFI
same,fluorescence intensity,[12]; [14],16.5 MFI

# A second format for part of the listing above.
binder	measurement	setting	value
4-127.1 (protein) chain 1: QVQLQESGPGLVKPSETLSLTCAVSDYSINTGHGWTWIRQPPGKGLEWIGYIGGSSGSPNYNPSLKSRVTISKDTSKNELSLKLNSVTAADTAVYYCARRIPADRSGNDFWGQGVLVTVSS chain 2: QSVLTQPPSVSGDPGQRVTISCTGSSSNIGGFYGYWYQQFPGTAPKLLIYDNNKRPSGISDRFSGSKSGTSASLTITGLQPGDEADYYCGSWDSSLSAHVFGSGTKLTVL	fluorescence intensity	[3]; [13]	51.5 MFI
same	fluorescence intensity	[3]; [14]	52.2 MFI
same	fluorescence intensity	[3]; [15]	55.8 MFI
